Measured values taken from US6642007.

B1: monoclonal antibody 5109 (antibody, V domains shown)
VH: EVQLVESGGGSVQPGGSLKLSCAASGFTFNTYGMSWVRQTPDKRLEWVATINSNGGLTFYADSVKGRFTISRDNAKNTLYLQMNRLKSGDSGMYYCVRGYSNYARWGQGALVTVSA
VL: DVVMTQTPLTLSVTIGQSASISCKSSQSLLGSDGLTYLIWLLQRPGQSPKRLIFLVSELDSGVPDRFTGSGSGTDFTLKISRVEAEDLGVYYCCQGTHFPHTFGAGTKLELK
B2: monoclonal antibody 9A4 (antibody, V domains shown)
VH: QIQLVQSGPELKKPGETVKISCKASGYTFTDYSIHWVKQAPGKGLKWMGWINTETGEPTYADDFKGRFAFSLETSASTAYLQINNLKNEDTATYFCARGGSLDYWGQGTTLTVSS
VL: QIVLTQSPVFMSASPGEKVTMTCSASSSVSYMYWYQQKPGSSPRLLIHATSNLASGVPVRFSGGGSGTSYSLTISRMEAEDAATYYCQQWRSYTRTFGGGTKLEIIR

What was measured:
type I collagen = test: BIAcore, antibody over amine-coupled collagen
type II collagen = test: BIAcore, antibody over amine-coupled collagen
[1] = target: type II collagen cleaved by collagenase; test: BIAcore, 5109 at 10 µg/ml over amine-coupled collagen
[2] = target: type II collagen cleaved by collagenase; test: BIAcore, 9A4 at 10 µg/ml over amine-coupled collagen

Binder | binding (type I collagen) | binding (type II collagen) | binding [1] | binding [2]
B1 | no binding (tested: 10 µg/ml) | no binding (tested: 10 µg/ml) | binds | 
B2 | no binding (tested: 10 µg/ml) | no binding (tested: 10 µg/ml) |  | binds

Results are given in words; binding and its absence hold for the method and conditions named. For part of these data: Binding can be weak; no strength is given.
